Assay results from the supplement of paper PMC12819154, “High-throughput peptide-centric local stability assay extends protein–ligand identification to membrane proteins, tissues and bacteria” (Nature Structural & Molecular Biology, 2025).
The list shows a part of the results. Most entries show no effect beyond the scatter of the controls.

By UniProt entry, the sequences of proteins in these tests, tags left out. Where a name states a change or a piece, a line headed by the entry shows the natural chain unless it says otherwise.
UniProt Q13144, whole entry: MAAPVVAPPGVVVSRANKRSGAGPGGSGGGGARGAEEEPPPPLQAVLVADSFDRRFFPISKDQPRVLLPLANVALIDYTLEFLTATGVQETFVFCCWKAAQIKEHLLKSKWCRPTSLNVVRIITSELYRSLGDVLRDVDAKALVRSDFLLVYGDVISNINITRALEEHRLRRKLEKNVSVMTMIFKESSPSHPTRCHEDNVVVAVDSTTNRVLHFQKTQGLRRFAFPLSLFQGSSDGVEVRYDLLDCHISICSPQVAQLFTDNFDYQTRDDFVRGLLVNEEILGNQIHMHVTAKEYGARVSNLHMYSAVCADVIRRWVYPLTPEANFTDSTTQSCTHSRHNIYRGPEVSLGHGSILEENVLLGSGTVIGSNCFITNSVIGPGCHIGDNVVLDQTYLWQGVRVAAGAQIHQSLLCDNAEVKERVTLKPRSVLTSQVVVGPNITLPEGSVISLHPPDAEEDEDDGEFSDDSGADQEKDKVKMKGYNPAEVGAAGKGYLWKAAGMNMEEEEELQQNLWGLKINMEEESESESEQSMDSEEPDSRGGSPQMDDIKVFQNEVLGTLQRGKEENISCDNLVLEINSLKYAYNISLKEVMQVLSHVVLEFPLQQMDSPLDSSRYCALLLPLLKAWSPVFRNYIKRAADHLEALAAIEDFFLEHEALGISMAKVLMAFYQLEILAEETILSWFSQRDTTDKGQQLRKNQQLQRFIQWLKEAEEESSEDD
UniProt Q13485: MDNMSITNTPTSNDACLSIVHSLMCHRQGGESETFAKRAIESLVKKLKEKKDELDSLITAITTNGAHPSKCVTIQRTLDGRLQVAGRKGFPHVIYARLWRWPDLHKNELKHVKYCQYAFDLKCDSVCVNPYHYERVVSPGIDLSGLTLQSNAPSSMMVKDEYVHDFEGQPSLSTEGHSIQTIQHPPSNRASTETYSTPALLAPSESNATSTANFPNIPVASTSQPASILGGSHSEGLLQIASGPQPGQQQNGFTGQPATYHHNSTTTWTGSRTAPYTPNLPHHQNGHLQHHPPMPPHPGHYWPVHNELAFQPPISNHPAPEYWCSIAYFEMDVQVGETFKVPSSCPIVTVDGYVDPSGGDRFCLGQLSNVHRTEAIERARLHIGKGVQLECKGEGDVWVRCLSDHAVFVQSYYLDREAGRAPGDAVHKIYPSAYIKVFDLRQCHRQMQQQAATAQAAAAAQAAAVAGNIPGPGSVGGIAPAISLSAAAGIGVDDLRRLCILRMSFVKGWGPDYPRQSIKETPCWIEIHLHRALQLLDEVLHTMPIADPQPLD
UniProt Q14149: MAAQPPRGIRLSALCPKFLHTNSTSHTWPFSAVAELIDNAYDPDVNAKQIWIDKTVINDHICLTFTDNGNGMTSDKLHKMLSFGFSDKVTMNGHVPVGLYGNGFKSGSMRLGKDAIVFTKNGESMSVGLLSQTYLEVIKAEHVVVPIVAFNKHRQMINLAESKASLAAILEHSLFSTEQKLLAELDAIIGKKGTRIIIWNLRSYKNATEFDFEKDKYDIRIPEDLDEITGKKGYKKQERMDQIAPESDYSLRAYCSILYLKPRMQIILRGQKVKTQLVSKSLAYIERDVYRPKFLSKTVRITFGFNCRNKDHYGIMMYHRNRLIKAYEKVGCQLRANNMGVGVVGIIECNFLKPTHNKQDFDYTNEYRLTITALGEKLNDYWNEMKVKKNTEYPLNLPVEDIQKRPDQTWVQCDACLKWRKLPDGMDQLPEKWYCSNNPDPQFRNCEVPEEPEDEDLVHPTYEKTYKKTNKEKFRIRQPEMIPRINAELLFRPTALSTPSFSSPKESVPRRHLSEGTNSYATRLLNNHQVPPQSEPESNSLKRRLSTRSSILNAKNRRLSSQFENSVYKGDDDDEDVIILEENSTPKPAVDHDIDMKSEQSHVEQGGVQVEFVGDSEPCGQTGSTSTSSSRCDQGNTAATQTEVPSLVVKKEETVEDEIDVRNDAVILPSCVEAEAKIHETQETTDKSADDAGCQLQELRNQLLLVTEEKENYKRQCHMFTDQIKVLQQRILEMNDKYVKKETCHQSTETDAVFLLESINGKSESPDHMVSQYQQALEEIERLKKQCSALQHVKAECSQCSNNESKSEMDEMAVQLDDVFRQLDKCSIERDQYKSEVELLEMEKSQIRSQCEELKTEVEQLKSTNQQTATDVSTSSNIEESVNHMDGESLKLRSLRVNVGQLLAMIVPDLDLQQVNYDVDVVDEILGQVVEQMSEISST
UniProt Q14692: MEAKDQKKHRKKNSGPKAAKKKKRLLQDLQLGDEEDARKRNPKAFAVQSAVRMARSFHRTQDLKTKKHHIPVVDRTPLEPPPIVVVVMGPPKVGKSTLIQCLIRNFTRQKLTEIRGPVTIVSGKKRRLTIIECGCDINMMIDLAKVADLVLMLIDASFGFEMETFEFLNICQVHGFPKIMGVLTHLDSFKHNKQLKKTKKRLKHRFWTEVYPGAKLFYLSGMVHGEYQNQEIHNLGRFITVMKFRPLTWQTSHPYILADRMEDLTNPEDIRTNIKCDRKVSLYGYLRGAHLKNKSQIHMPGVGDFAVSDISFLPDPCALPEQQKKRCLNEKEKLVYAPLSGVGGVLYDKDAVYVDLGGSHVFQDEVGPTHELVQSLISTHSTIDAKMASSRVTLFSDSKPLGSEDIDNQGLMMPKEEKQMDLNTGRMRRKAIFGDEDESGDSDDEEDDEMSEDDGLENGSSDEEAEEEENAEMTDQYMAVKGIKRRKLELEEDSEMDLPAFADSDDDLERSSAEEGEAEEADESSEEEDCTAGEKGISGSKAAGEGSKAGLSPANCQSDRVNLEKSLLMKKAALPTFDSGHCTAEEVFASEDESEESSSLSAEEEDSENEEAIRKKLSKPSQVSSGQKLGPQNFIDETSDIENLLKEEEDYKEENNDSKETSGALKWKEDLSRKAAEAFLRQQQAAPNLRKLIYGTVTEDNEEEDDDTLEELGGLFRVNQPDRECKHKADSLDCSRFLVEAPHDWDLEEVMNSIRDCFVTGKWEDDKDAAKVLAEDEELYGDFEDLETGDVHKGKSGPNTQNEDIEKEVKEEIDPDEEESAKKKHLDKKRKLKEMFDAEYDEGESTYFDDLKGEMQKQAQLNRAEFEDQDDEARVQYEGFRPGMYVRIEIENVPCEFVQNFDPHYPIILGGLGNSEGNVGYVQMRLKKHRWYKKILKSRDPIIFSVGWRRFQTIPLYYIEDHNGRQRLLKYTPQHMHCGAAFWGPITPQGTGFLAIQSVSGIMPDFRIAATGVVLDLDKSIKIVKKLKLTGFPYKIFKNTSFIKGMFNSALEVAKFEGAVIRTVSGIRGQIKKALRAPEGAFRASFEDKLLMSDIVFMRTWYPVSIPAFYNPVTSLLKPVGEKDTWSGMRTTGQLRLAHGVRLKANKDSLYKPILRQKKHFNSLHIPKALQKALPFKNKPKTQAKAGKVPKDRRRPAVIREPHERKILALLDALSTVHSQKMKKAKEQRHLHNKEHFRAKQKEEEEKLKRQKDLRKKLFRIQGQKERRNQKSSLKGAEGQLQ
UniProt Q13795: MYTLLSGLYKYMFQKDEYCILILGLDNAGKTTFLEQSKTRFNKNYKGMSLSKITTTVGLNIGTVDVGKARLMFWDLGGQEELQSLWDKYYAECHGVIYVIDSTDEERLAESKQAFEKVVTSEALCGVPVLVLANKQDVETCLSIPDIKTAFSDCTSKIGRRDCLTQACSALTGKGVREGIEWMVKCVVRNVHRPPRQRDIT
UniProt Q13630: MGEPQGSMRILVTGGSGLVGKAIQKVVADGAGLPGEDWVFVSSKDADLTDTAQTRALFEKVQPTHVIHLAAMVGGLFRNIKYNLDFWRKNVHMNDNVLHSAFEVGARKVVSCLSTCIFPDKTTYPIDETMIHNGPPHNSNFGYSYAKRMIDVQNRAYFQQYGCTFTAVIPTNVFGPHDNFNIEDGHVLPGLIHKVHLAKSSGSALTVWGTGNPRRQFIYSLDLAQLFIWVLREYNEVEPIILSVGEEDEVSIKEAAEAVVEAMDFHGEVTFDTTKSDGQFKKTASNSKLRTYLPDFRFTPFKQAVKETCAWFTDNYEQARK
UniProt Q14585: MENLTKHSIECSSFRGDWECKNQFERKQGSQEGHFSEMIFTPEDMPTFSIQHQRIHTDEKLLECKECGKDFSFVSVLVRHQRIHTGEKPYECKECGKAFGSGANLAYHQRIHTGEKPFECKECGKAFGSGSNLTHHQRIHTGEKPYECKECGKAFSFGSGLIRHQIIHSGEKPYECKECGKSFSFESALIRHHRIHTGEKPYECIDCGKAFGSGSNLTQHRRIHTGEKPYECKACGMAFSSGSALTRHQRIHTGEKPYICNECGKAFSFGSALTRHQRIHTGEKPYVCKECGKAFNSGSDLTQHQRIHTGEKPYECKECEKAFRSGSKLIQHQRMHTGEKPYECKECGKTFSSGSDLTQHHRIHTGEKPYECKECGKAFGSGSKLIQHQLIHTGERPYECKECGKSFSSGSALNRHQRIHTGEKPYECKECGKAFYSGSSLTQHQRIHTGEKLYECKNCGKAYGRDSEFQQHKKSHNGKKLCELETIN
UniProt Q14964: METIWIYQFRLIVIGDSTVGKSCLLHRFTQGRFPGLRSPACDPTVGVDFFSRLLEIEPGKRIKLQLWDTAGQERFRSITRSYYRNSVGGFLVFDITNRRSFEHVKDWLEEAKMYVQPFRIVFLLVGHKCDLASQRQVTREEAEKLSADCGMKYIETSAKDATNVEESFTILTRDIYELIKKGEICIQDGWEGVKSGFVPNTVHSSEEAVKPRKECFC

What follows are targets tested with Cc1nc(Nc2ncc(C(=O)Nc3c(C)cccc3Cl)s2)cc(N2CCN(CCO)CC2)n1 [dasatinib] (assay: log2 fold change of tryptic peptide abundance, ligand vs vehicle (limited proteolysis) (log2 ratio); higher = more trypsin-susceptible (destabilized)). Conditions: ligand concentration: 5 uM; sample: K562 cleared lysate.
Target “EIF2B5 (peptide sequence: VSNLHMYSAVCADVIRR, peptide start residue: 300) (UniProt Q13144)” has a log2 fold change of 0.214. “SMAD4 (peptide sequence: QGGESETFAKR, peptide start residue: 28) (UniProt Q13485)” was tested, and the log2 fold change was 0.798. With “MORC3 (peptide sequence: SLAYIERDVYRPK, peptide start residue: 281) (UniProt Q14149)” the log2 fold change was 0.365. With “BMS1 (peptide sequence: QQQAAPNLR, peptide start residue: 682) (UniProt Q14692)” the log2 fold change was 0.157. In the case of “UniProt Q14197 (peptide sequence: SSGPGGQNVNK, peptide start residue: 84)”, the log2 fold change is reported as 0.265. Work on “ARFRP1 (peptide sequence: RDCLTQACSALTGK, peptide start residue: 161) (UniProt Q13795)” yielded a log2 fold change of 0.543. Target “TSTA3 (peptide sequence: SSGSALTVWGTGNPRR, peptide start residue: 200) (UniProt Q13630)” has a log2 fold change of 0.845. “UniProt Q14585 (peptide sequence: MHTGEKPYECK, peptide start residue: 469)” was tested, and the log2 fold change was 0.803. “UniProt Q14964 (peptide sequence: LQLWDTAGQER, peptide start residue: 64)” gave a log2 fold change of 0.0549.
